Values joined by “and” are separate entries in the source; they are usually repeats but may differ in a detail not shown here. Equal entries are not always repeated. For at least one compound, name, drawing or mass did not settle the structure.
Legend:
[1] = system: thrombin clotting time (TT); test: Example 13 Part I: high dose TGN 255 and oxidised HDL in anaesthetised rat, thrombin time; assay type: in vivo; conditions: 10 mg/kg bolus + 30 mg/kg/hr infusion
[2] = system: thrombin clotting time (TT); test: Example 14: antidote HDL after TGN 255 in anaesthetised rat, thrombin time; assay type: in vivo

`COCCC[C@H](NC(=O)[C@@H]1CCCN1C(=O)[C@@H](Cc1ccccc1)NC(=O)OCc1ccccc1)B(O)O.[Na+]` [TGN 255] was tested, and the “mean thrombin time after 30 minutes of infusion” value ([1]; Groups 3 and 4) was 284.7 to >288.8, the “thrombin times at the end of the infusion period” value ([1]; rat) was 269.4 to >300 and the “Group mean TT (s ± sd) at time (min) post the start of TGN 255 infusion: 32” value ([2]; 32 min, 2 minutes post Treatment 2 (saline or HDL 150 mg/kg)) was 99.8^(5) ± 36.88 s. The “Group mean TT (s ± sd) at time (min) post the start of TGN 255 infusion: 40” value ([2]; 40 min, Treatment 2 (saline or HDL 150 mg/kg) given at 30 min) was 62.6^(5) ± 27.07 s, the “Group mean TT (s ± sd) at time (min) post the start of TGN 255 infusion: 60” value ([2]; 60 min, Treatment 2 (saline or HDL 150 mg/kg) given at 30 min) was 54.7^(2) ± 6.43 s and the “Group mean TT (s ± sd) at time (min) post the start of TGN 255 infusion: 15” value ([2]; TGN 255 2.5 mg/kg bolus + 12 mg/kg/hr infusion, 15 min) was 154.2^(4) ± 28.34 s and 162.7^(6) ± 30.14 s.

From patent US20060172920A1, “Oxidised lipids as reversal agents for boronic acid drugs” (priority 2004, published 2006)
